The assay deals with T1, Stimulator of interferon genes (mouse (endogenous in DC2.4)) (UniProt Q3TBT3).
T1 sequence: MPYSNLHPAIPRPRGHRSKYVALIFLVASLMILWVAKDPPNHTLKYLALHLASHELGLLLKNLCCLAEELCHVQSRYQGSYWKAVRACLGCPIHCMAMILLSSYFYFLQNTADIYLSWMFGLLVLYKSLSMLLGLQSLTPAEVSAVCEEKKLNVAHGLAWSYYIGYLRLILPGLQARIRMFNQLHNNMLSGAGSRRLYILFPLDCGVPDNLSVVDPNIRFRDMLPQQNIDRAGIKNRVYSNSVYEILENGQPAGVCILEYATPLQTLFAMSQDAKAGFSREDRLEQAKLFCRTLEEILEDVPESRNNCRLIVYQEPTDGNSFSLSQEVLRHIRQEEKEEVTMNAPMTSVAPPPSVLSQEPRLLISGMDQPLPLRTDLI
The assay is described as follows: co-IP; con and Trim13 KD DC2.4 cell lysates (nondenaturing lysis) immunoprecipitated with anti-STING antibody, protein A magnetic beads, probed with anti-NLRP3; cells stimulated with LPS (1 ug/ml, 24 h); IgG control.

Sequences of proteins named here, by UniProt entry; tags and fusion partners are left off.
UniProt Q8R4B8: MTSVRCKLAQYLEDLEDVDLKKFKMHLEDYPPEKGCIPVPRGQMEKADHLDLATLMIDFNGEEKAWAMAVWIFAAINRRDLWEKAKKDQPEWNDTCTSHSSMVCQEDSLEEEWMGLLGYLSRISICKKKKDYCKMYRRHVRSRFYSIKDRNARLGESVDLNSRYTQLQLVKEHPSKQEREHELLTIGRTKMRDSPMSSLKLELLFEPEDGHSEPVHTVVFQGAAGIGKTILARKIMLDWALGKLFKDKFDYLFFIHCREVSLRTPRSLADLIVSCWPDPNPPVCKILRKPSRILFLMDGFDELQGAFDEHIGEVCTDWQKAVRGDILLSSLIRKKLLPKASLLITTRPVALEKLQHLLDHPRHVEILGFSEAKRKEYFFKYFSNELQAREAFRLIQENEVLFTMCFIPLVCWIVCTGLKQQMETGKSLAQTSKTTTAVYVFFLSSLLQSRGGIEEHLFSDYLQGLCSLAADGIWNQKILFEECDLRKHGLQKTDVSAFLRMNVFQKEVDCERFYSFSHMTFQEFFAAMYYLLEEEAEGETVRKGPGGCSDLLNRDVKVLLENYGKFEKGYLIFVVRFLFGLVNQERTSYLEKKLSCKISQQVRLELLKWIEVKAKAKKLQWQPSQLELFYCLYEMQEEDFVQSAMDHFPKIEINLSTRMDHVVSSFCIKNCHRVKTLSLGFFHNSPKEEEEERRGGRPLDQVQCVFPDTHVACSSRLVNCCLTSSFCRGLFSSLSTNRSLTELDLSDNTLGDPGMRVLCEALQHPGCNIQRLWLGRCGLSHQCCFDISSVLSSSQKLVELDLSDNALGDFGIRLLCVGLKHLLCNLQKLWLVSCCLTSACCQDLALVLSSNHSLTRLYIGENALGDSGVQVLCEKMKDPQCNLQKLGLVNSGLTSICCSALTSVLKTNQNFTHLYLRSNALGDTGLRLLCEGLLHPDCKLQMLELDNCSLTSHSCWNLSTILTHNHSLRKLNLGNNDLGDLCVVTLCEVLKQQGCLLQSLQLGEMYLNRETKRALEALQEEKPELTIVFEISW

These are yes or no findings as the source states them, for the method shown. In cells and extracts the contact can be indirect. Some binding calls cover weakened binding; strength is not graded here.

For the substance “NLR family pyrin domain containing 3 (from UniProt Q8R4B8 1-1033)”, the binding result is on record as “binds”.

The record behind these values is paper PMC12870119.
